Results published in PubChem BioAssay AID1259415 (National Center for Advancing Translational Sciences (NCATS), 2018).
About 18,000 (4.4%) of roughly 410,000 compounds were called active. The shares of active, inactive and inconclusive entries below differ from those in the screen. No stated cut-off is given here; in the data, active means activity change below about -60%; inconclusive means no clear call, values can overlap the other calls; inactive means above about -39%.

Test: qHTS Assay for inhibitors of the human cytomegalovirus (HCMV)
Settings: HFF cells, HCMV-luciferase reporter, 72 h; at 57.5 µM; stronger effect = lower value
In short: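 Compounds were evaluated in HFFs infected with an HCMV luciferase reporter virus (MOI 1 PFU/cell). Luciferase in lysates collected 72 h post infection served as the replication measure.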
On the % scale 0 is the no-effect control and ±100 the full control effect.

SMILES | activity change, negative = inhibition
COC(=O)c1ccccc1S(=O)(=O)N1CCCC(c2nc3c(nnn3Cc3ccc(C)cc3)c(=O)[nH]2)C1 (stereo unspecified) | active: -77.5%
COc1ccc(C(=O)c2ccc([N+](=O)[O-])cc2Cl)cc1 | inconclusive: -59.8%
CCCCN(C(=O)NC(=O)Nc1ccc(C)cn1)S(C)(=O)=O | inconclusive: -49.3%
C=CCNC(=S)Nc1cc(C)ccn1 | active: -83.4%
CC1CCN(Cc2nnnn2CCCC(=O)N(C)C(C)c2ccccn2)CC1 (stereo unspecified) | inconclusive: -51.6%
Cc1ccc(C)c(-n2c3nc(=O)[nH]c(=O)c-3cc3cc([N+](=O)[O-])ccc32)c1 | inconclusive: -43.8%
O=C1[C@@H](c2ccccc2)[C@@H](c2ccccc2)N1c1cccnc1 | inconclusive: -52.6%
c1cc(CNCCc2ccc3c(c2)OCO3)ccn1 | inactive: 20.9%
COc1cccc(NC(=O)C2(C)CCN2Cc2ccccc2Cl)c1 (stereo unspecified) | inconclusive: -46.2%
C=C[C@@H]1c2cc(C)ccc2N(S(=O)(=O)c2ccc(C)cc2)[C@H](c2ccccc2C(F)(F)F)C1(C#N)C#N | inactive: -25.3%
CCOC(=O)/C(C#N)=C\c1cc(C)n(-c2ccccc2)c1C | inconclusive: -56.8%
CCC(=O)OC1(C)C(=O)C2=COC(c3ccc(OC)cc3)=CC2=C(Br)C1=O (stereo unspecified) | inconclusive: -56.8%
CC(=O)c1ccc(S(=O)(=O)NCCOc2ccccc2)cc1 | inconclusive: -51%
S=c1[nH]nc(-c2ccccc2)n1/N=C/C=C/c1ccco1 | inactive: 25.3%
CC(C)(C)c1ccccc1NC(=O)c1cnn2c(C(F)F)cc(-c3ccccc3)nc12 | inconclusive: -50.2%
CC(=O)OC[C@@H]1CN(Cc2cccc(C(F)(F)F)c2)C[C@H](n2cnc3c(NCc4ccco4)ncnc32)O1 | inconclusive: -58%
CCC(Sc1nc2ncccc2[nH]1)C(=O)NCCc1ccccc1 (stereo unspecified) | active: -61.3%
Cc1ccc(C)c(N2CCN(S(=O)(=O)c3ccc4c(c3)OCCO4)CC2)c1 | inconclusive: -42.4%
S=C1SCN(Cc2ccco2)CN1Cc1ccco1 | active: -99.1%

Reformatted as labelled records: entries from further up.
CC(=O)c1ccc(S(=O)(=O)NCCOc2ccccc2)cc1
  activity change, negative = inhibition: inconclusive: -51%
S=c1[nH]nc(-c2ccccc2)n1/N=C/C=C/c1ccco1
  activity change, negative = inhibition: inactive: 25.3%

Remaining list, next part:

SMILES | activity change, negative = inhibition
COc1cc(Nc2ncc3c(n2)CCN(Cc2cc(F)cc(F)c2)C3)cc(OC)c1 | inconclusive: -42.3%
CCOC(=O)c1ccc(NC(=O)CSC2=NN3CCCC(=O)N=C3S2)cc1 | inactive: -14.2%
COc1ccc(CN2CCN(C(=O)CCC(=O)Nc3nnc(C4CCCCC4)s3)CC2)cc1F | active: -73%
Cc1cc(NC(=O)COc2ccccc2C#N)no1 | inconclusive: -53.8%
O=C(Nc1ccc(F)cc1F)N1CCN(c2ccc(Cl)c(Cl)c2)CC1 | inconclusive: -47.8%
COc1ccc(C2C(C#N)=C(N)Oc3c2ccc2cccnc32)cc1OC (stereo unspecified) | active: -101%
Cc1ccc(C(=O)Nc2ccc(N3CCOCC3)cc2)cc1 | inactive: -35.8%
O=C(Nc1ccc(Cl)c(Cl)c1)c1ccc(Cn2c(=O)[nH]c3ccsc3c2=O)cc1 | inconclusive: -41.5%
CN(Cc1cccc2cnccc12)C(=O)c1cc(COc2ccc(F)cc2F)on1 | active: -60.1%
Cc1ccccc1C(=O)NC(=S)Nc1ccc(S(=O)(=O)N2CCN(C)CC2)cc1 | inconclusive: -53.3%
Cn1nnnc1SCCCNCc1cc(Cl)ccc1OCc1ccccc1F | inconclusive: -41.4%
CCOc1ccc(S(=O)(=O)NCc2ccncc2)cc1NC(=O)c1ccccc1F | inconclusive: -54%
CCOc1ccc(NC(=O)CSc2nnc(Cn3cnc([N+](=O)[O-])n3)n2CC)cc1 | active: -67.1%
CN(C)CCNC(=O)c1onc(CSc2ccc(F)cc2)c1C(=O)NCCN(C)C | inconclusive: -42.6%
C[C@H](CO)N1C[C@H](C)[C@@H](CN(C)C(=O)c2ccncc2)OCc2cn(nn2)CCCC1=O | inactive: 22%
CC(C)(C)S(=O)N1Cc2ccc(CO)cc2[C@@H]1CCO (stereo partly specified) | inactive: -3.73%
CCc1ccc2oc(C(=O)Nc3nonc3C)c(C)c2c1 | inconclusive: -48.6%
COc1ccnc(NCc2ccc(Cl)cc2)c1C#N | inconclusive: -49.8%
Cc1ccc(C(CC(=O)Nc2ccc(F)c(Cl)c2)N2Cc3ccccc3C2=O)cc1 (stereo unspecified) | active: -104%

SMILES | activity change, negative = inhibition
COc1cccc2sc(=NC(=O)CCS(=O)(=O)c3ccc(C)cc3)n(C)c12 | inactive: -34.7%
CCOCCCn1c(SCC(=O)Nc2ccccc2OC)nc2ccccc2c1=O | inconclusive: -48.3%
CC(=O)Nc1ccc(-c2ccnc3c2CC(C(=O)Nc2ccc(Cl)c(C(F)(F)F)c2)O3)cc1 (stereo unspecified) | inactive: -26.4%
O=C(/C=C/c1ccc(-c2cccc([N+](=O)[O-])c2)o1)N1CCOCC1 | active: -61.2%
COc1cc(/C(C)=N/NC(=O)c2ccc(CSc3nncn3C)cc2)cc(OC)c1OC | inactive: 21.9%
O=C(CN1C(=O)/C(=C/c2ccc(F)cc2)SC1=S)NC1CCS(=O)(=O)C1 (stereo unspecified) | inconclusive: -40.7%
CN(CC(=O)Nc1cccc(F)c1)C(=O)CCN1C(=O)C2CC=CCC2C1=O (stereo unspecified) | inconclusive: -43.3%
Cc1ccc(Cl)cc1NC(=O)Cn1ncc2c(C)n(Cc3ccccc3F)c(C)c2c1=O | inactive: 16.6%
CCCCCOc1ccc(Br)cc1CSC(=N)N | active: -98.4%
CSCCC(NS(=O)(=O)c1ccc(C)cc1)C(=O)N1CCCCCCC1 (stereo unspecified) | inconclusive: -42.6%
COc1ccc(-n2nc(C(=O)Nc3nc4ccc(OC)cc4s3)c3ccccc3c2=O)cc1 | inconclusive: -47.2%
CCC(=O)N1CCc2cc(Br)cc(S(=O)(=O)NC3CCN(Cc4ccccc4)CC3)c21 | inconclusive: -42.7%
S=C(NCc1ccccc1)NCc1ccc(Cl)cc1 | inconclusive: -47.2%
O=C(C1CCCN(Cc2ccc(Br)cc2)C1)N1CCCCC1 (stereo unspecified) | inconclusive: -40.1%
C=CCn1c(-c2cccc(OC)c2)n[nH]c1=S | inconclusive: -47.7%
CC1CCCCC1NC(=O)CSc1nncn1N (stereo unspecified) | inactive: -6.24%
O=C1c2ccccc2-c2onc3ccc(N4CCCC4)c1c23 | inconclusive: -51%
Cc1ccc(SCC(=O)N2CCN(S(=O)(=O)c3cccs3)CC2)cc1 | inactive: 8.14%
